# In PubChem BioAssay AID588343 (Broad Institute, 2011):
# Hit rate of the full screen: of about 1,200 compounds, about 650 (54%) were called active. So high a share suggests a set chosen from earlier hits. The shares of active, inactive and inconclusive entries below differ from those in the screen.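 The calls were made as follows: active = signal-lowering curve whose fitted half-maximal concentration is at or below ten times the top valid dose tested; inconclusive = flat curve with 30 to 70% inhibition, or poor fit; inactive = signal increase, flat within 30%, or potency beyond limit.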
# Assay: inhibitors of LMP1-driven NF-kB reporter, dose response, cell-based, HEK293, luciferase, cherry-pick (AID 588343);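 also: 0% = median of neutral control wells and -100% = MG132 positive control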
# Settings: HEK293 LMP1 TES2 NF-kB luciferase reporter, 16 h; at 35 µM (top of the series) unless noted
row,SMILES,"activity change, negative = inhibition"
1,COc1ccc(OC)c(CCNC(=O)CCn2nc(C)c3c(C)n(-c4ccccc4)nc3c2=O)c1,inconclusive: 24.4%
2,COc1cccc(/C=N/Nc2ncnc(Cl)c2N)c1O,inconclusive: -75.1%
3,O=C(O)c1ccc(-n2cncn2)c([N+](=O)[O-])c1,inactive: 15%
4,CCOc1ccc(Br)cc1/C(C)=N\NC1=NCCN1,inconclusive: -24.8%
5,COc1cc2oc(=O)cc(-c3ccc(-c4ccc(N(C)C)cc4)cc3)c2c(OC)c1OC,inconclusive: -34.8%
6,c1ccc2c3c([nH]c2c1)C(C1CCCCC1)N(Cc1ncc[nH]1)CC3 (stereo not given),inconclusive: -18.9%
7,CCOC(=O)C1=C(O)/C(=C/c2ccc(CNC(=O)C(=O)Nc3ccc(C)cc3)o2)N=C1C,inconclusive: -35.2%
8,COc1ccc2sc3c(=O)[nH]c4ccccc4c3c2c1,inconclusive: 170%
9,CCNc1ccc(Br)cc(C(=O)/C=C/c2c(Cl)cccc2Cl)c1=O,inconclusive: -98.5%
10,COc1cc(C(c2sc3nc(C)nn3c2O)N2CCc3ccccc3C2)cc(OC)c1OC (stereo not given),inactive: -5.62%
11,O=C(Nc1nnc(-c2cccs2)o1)c1cccc(C(F)(F)F)c1,inconclusive: -52.3%
12,CCN(CC)c1ccc(/C=N/Nc2nc3ccccc3[nH]2)c(O)c1,inconclusive: -40.2%
13,Cc1ccc(S(=O)(=O)N2CCN(C(=O)COC(=O)COc3ccc(Cl)cc3)CC2)c(C)c1,inactive: 10.8%
14,COc1ccc(OC)c(NC(=O)COc2coc(CN3CCc4ccccc43)cc2=O)c1,inconclusive: -31.6%
15,O=C(c1ccccc1Br)N1CCN(Cc2ccc3c(c2)OCO3)CC1,inconclusive: -48.4%
16,Cc1ccc(NC(=S)N=Nc2c(O)n(C)c3ccc(S(=O)(=O)N4CCOCC4)cc23)cc1,inconclusive: -24.8%
17,Cn1cccc1C(=O)OCC(=O)Nc1ccc2c(c1)OCO2,inconclusive: -15.8%
18,CNc1ccc(Br)cc(C(=O)/C=C/c2cc(OC)ccc2OC)c1=O,inconclusive: 20.3% [at 11 µM]
19,COc1ccc(-c2cc3nc(-c4ccccc4)cc(N4CCCC(O)C4)n3n2)cc1 (stereo not given),inconclusive: 32.6%
20,Oc1cccc2ccc(Nc3ccccn3)nc12,inconclusive: -95.8%
21,O=c1cc(-c2ccccc2)[nH]c2ccc(F)cc12,inactive: 3.13%
22,CCOC(=O)c1sc2nc(C)nc(NCc3ccccc3)c2c1C,inactive: 32.4%
23,CCn1c(CCNC(=O)c2ccc(OC)cc2)nnc1SCc1ccc(Cl)cc1Cl,inactive: -10.7%

row,SMILES,"activity change, negative = inhibition"
1,O=C(Nc1ccncc1)OCc1ccccc1,inactive: -5.3%
2,CCc1nnc(NC(=O)c2cc(S(=O)(=O)N3CCN(CC)CC3)ccc2Cl)s1,inactive: 4.28%
3,Cc1cccc(Cn2cc(SCC(=O)Nc3nccs3)c3ccccc32)c1,inconclusive: 53.9%
4,Nc1ncnc2c1c(-c1ccc(Oc3ccccc3)cc1)cn2C1CCCC1,inconclusive: 32.1% [at 11 µM]
5,C#CCN(C[C@@H]1[C@@H](OC(=O)NCC2CCCCC2)[C@@H](OC(=O)NCC2CCCCC2)Cn2c(=O)ccc(=O)n21)S(=O)(=O)c1ccc(C)cc1,inconclusive: -102%
6,O=C(CCCN1C(=O)[C@H]2CC=CC[C@H]2C1=O)NCc1nc(-c2ccc(Cl)cc2)no1,inactive: -18.8%
7,C[n+]1c2n(c3ccccc31)N=C(c1cc(C(C)(C)C)c(O)c(C(C)(C)C)c1)CS2,inconclusive: 28.4%
8,COc1cc(C=C2CCCC(=Cc3ccc(OCC4CO4)c(OC)c3)C2=O)ccc1OCC1CO1 (stereo not given),inconclusive: -99.3%
9,CCOc1ccccc1NC(=O)Cn1c(=O)sc2ccccc21,inconclusive: -15.8%
10,Cc1ccc(-n2ccc(=O)c(C(=O)Nc3ccc(S(=O)(=O)N4CCOCC4)cc3)n2)cc1,inactive: -5.67%
11,S=C(NCCCN1CCOCC1)N1CCN(c2nc(-c3ccc(Cl)cc3)cs2)CC1,inconclusive: -68.4%
12,c1ccc(CN2CCN(c3ncnc4c3[nH]c3ccccc34)CC2)cc1,inconclusive: -30.2%
13,COc1ccc(NC(=O)Cn2nnc(C(=O)NCc3ccccc3)c2N)c(OC)c1,inactive: 8.34%
14,C/C(=N\NC(=O)c1cccc(Br)c1)c1ccccn1,inconclusive: -33.9%
15,Cc1cc(=S)[nH]c2ccccc12,inactive: 6.14%
16,Cc1cccc(C)c1NC(=O)CN(C)CC(=O)Nc1ccccc1Oc1ccccc1,inconclusive: -3.23%
17,CCNc1ccc(Br)cc(C(=O)/C=C/c2ccccc2Cl)c1=O,inconclusive: 62.2% [at 11 µM]
18,CCOc1ccc(C(C)=O)cc1COc1cccnc1[N+](=O)[O-],inconclusive: -10.8%
19,COc1cc(/C=N/NC(=O)c2cc(C34CC5CC(CC(C5)C3)C4)[nH]n2)ccc1O,inconclusive: 100%
20,C=CCn1c(O)c(N=NC(=S)Nc2ccccc2F)c2cc(S(=O)(=O)N3CCOCC3)ccc21,inconclusive: -40.4% [at 11 µM]
21,Cc1sc2ncn(CC(=O)N3CCC(C(N)=O)CC3)c(=O)c2c1S(=O)(=O)N1CCOCC1,inactive: -2.58%
22,CN(Cc1ccccc1)c1nc(N)c([N+](=O)[O-])c(NCc2ccccc2)n1,inactive: 26.4%

# Structural class, the entries above with an aryl thioether with sulfur outside any ring
row,SMILES,"activity change, negative = inhibition"
23,CCn1c(CCNC(=O)c2ccc(OC)cc2)nnc1SCc1ccc(Cl)cc1Cl,inactive: -10.7%
3,Cc1cccc(Cn2cc(SCC(=O)Nc3nccs3)c3ccccc32)c1,inconclusive: 53.9%
